We go through 1 substance from publication PMC5568443.

Amino acid sequences for entries named in this document (tags omitted). A change or cut given only in a name is not applied to a line headed by its entry.
UniProt Q4GZ52: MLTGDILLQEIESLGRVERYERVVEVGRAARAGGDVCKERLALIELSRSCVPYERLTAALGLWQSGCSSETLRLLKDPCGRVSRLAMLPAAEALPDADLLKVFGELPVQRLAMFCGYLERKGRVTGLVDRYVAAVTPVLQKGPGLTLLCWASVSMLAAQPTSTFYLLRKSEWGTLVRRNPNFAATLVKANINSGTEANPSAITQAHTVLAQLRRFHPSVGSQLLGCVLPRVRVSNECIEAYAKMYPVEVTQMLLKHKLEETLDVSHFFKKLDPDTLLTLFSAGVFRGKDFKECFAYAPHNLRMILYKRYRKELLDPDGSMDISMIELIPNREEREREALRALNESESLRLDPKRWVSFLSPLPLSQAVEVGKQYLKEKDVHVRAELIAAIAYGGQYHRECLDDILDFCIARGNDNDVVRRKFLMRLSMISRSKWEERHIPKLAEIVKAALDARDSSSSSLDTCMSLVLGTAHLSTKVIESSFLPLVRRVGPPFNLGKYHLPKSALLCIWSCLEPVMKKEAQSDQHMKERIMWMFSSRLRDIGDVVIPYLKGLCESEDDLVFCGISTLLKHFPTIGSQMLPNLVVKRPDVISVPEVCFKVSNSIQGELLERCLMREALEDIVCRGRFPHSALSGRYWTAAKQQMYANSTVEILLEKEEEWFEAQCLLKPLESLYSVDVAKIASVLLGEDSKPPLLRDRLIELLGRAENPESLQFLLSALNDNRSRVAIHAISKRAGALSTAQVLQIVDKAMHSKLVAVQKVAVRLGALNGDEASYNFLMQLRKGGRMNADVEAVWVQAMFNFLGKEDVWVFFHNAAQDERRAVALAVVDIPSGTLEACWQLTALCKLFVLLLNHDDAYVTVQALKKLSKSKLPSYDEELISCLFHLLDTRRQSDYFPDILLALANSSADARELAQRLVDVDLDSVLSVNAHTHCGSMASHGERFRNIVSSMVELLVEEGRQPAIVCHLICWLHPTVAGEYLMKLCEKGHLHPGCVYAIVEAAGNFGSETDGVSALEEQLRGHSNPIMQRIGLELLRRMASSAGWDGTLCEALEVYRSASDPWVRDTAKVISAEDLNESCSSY

The target of this test is TAP-RBP10 (RBP10 with an N-terminal tandem affinity purification tag) (T. brucei (Lister 427)) (UniProt Q57W93). Nature of the test: affinity purification with mass spectrometry; TAP-RBP10 from Lister 427 bloodstream forms: IgG column, TEV elution, calmodulin column, EGTA elution, SDS-PAGE, mass spectrometry; result over all six preparations (three with RNase, three without); TAP-GFP as negative control.

These are yes or no findings as the source states them, for the method shown. In cells and extracts the contact can be indirect. These calls come from enrichment with a bait or labelling near it, and not all partners need be listed.

In the case of “armadillo repeat protein, Tb927.1.1670 (from UniProt Q4GZ52)”, the binding result was “binds”.
